Experimental data from the supplement of paper PMC8728848.
The list shows a part of the results.

Key:
Assay in all cases: glycan array binding signal (z-score within array); higher = stronger binding
Conditions in all cases: glycan notation: IUPAC condensed, linker removed
[1] = target: Fuc(a1-2)[Gal(a1-3)]Gal(b1-4)Glc
Outline: (§1)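 The binding signal is a Z-score computed within each array and averaged over linkers. Arrays of the same protein sequence at different concentrations or buffers were also averaged together. Data originate from 3228 arrays in the Consortium for Functional Glycomics database, kept only where the protein sequence was available.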

[2] = target: Fuc(a1-2)[Gal(a1-3)]Gal(b1-4)GlcNAc
Outline: as §1

[3] = target: Fuc(a1-2)[Gal(a1-3)]Gal(b1-4)GlcNAc(b1-2)Man(a1-3)[Fuc(a1-2)[Gal(a1-3)]Gal(b1-4)GlcNAc(b1-2)Man(a1-6)]Man(b1-4)GlcNAc(b1-4)GlcNAc
Outline: as §1

[4] = target: Fuc(a1-2)[Gal(a1-3)]Gal(b1-4)GlcNAc(b1-2)Man(a1-3)[Fuc(a1-2)[Gal(a1-3)]Gal(b1-4)GlcNAc(b1-2)Man(a1-6)]Man(b1-4)GlcNAc(b1-4)[Fuc(a1-6)]GlcNAc
Outline: as §1

[5] = target: Fuc(a1-2)[Gal(a1-3)]Gal(b1-4)GlcNAc(b1-3)GalNAc
Outline: as §1

[6] = target: Fuc(a1-2)[Gal(a1-3)]Gal(b1-4)[Fuc(a1-3)]Glc
Outline: as §1

[7] = target: Fuc(a1-2)[Gal(a1-3)]Gal(b1-4)[Fuc(a1-3)]GlcNAc
Outline: as §1

[8] = target: Fuc(a1-2)[Gal(a1-3)]Gal(b1-4)[Fuc(a1-3)]GlcNAc(b1-3)GalNAc
Outline: as §1

[9] = target: Fuc(a1-2)[Gal(a1-4)]Gal(b1-4)GlcNAc
Outline: as §1

[10] = target: Fuc(a1-2)[GalNAc(a1-3)]Gal
Outline: as §1

[11] = target: Fuc(a1-2)[GalNAc(a1-3)]Gal(b1-3)GalNAc(a1-3)[Fuc(a1-2)]Gal(b1-4)GlcNAc
Outline: as §1

[12] = target: Fuc(a1-2)[GalNAc(a1-3)]Gal(b1-3)GlcNAc
Outline: as §1

[13] = target: Fuc(a1-2)[GalNAc(a1-3)]Gal(b1-3)GlcNAc(b1-2)Man(a1-3)[Fuc(a1-2)[GalNAc(a1-3)]Gal(b1-3)GlcNAc(b1-2)Man(a1-6)]Man(b1-4)GlcNAc(b1-4)GlcNAc
Outline: as §1

[14] = target: Fuc(a1-2)[GalNAc(a1-3)]Gal(b1-3)GlcNAc(b1-2)Man(a1-3)[Fuc(a1-2)[GalNAc(a1-3)]Gal(b1-3)GlcNAc(b1-2)Man(a1-6)]Man(b1-4)GlcNAc(b1-4)[Fuc(a1-6)]GlcNAc
Outline: as §1

[15] = target: Fuc(a1-2)[GalNAc(a1-3)]Gal(b1-3)GlcNAc(b1-3)GalNAc
Outline: as §1

[16] = target: Fuc(a1-2)[GalNAc(a1-3)]Gal(b1-4)Glc
Outline: as §1

[17] = target: Fuc(a1-2)[GalNAc(a1-3)]Gal(b1-4)GlcNAc
Outline: as §1

[18] = target: Fuc(a1-2)[GalNAc(a1-3)]Gal(b1-4)GlcNAc(b1-2)Man(a1-3)[Fuc(a1-2)[GalNAc(a1-3)]Gal(b1-4)GlcNAc(b1-2)Man(a1-6)]Man(b1-4)GlcNAc(b1-4)GlcNAc
Outline: as §1

[19] = target: Fuc(a1-2)[GalNAc(a1-3)]Gal(b1-4)GlcNAc(b1-2)Man(a1-3)[Fuc(a1-2)[GalNAc(a1-3)]Gal(b1-4)GlcNAc(b1-2)Man(a1-6)]Man(b1-4)GlcNAc(b1-4)[Fuc(a1-6)]GlcNAc
Outline: as §1

[20] = target: Fuc(a1-2)[GalNAc(a1-3)]Gal(b1-4)GlcNAc(b1-3)Gal(b1-4)GlcNAc
Outline: as §1

[21] = target: Fuc(a1-2)[GalNAc(a1-3)]Gal(b1-4)GlcNAc(b1-3)Gal(b1-4)GlcNAc(b1-3)Gal(b1-4)GlcNAc
Outline: as §1

[22] = target: Fuc(a1-2)[GalNAc(a1-3)]Gal(b1-4)GlcNAc(b1-3)GalNAc
Outline: as §1

[23] = target: Fuc(a1-2)[GalNAc(a1-3)]Gal(b1-4)[Fuc(a1-3)]GlcNAc
Outline: as §1

[24] = target: Fuc(a1-2)[GalNAc(a1-3)]Gal(b1-4)[Fuc(a1-3)]GlcNAc(b1-3)GalNAc
Outline: as §1

[25] = target: Fuc(a1-2)[GalNAc(a1-4)]Gal(b1-4)GlcNAc
Outline: as §1

[26] = target: Fuc(a1-2)[GalNAc(b1-3)]Gal
Outline: as §1

Fuc(a1-3)GlcNAc = target: Fuc(a1-3)GlcNAc
Outline: as §1

[27] = target: Fuc(a1-3)[Gal(b1-4)]Glc6S
Outline: as §1

[28] = target: Fuc(a1-3)[Gal(b1-4)]GlcNAc
Outline: as §1

[29] = target: Fuc(a1-3)[Gal(b1-4)]GlcNAc(b1-2)Man(a1-3)[Fuc(a1-3)[Gal(b1-4)]GlcNAc(b1-2)Man(a1-6)]Man(b1-4)GlcNAc(b1-4)GlcNAc
Outline: as §1

[30] = target: Fuc(a1-3)[Gal(b1-4)]GlcNAc(b1-2)Man(a1-3)[Fuc(a1-3)[Gal(b1-4)]GlcNAc(b1-2)Man(a1-6)]Man(b1-4)GlcNAc(b1-4)[Fuc(a1-6)]GlcNAc
Outline: as §1

[31] = target: Fuc(a1-3)[Gal(b1-4)]GlcNAc(b1-3)Gal(b1-3)[Fuc(a1-4)]GlcNAc
Outline: as §1

[32] = target: Fuc(a1-3)[Gal(b1-4)]GlcNAc(b1-3)GalNAc
Outline: as §1

[33] = target: Fuc(a1-3)[Gal(b1-4)]GlcNAc(b1-4)Gal(b1-4)[Fuc(a1-3)]GlcNAc
Outline: as §1

[34] = target: Fuc(a1-3)[Gal(b1-4)]GlcNAc(b1-4)Gal(b1-4)[Fuc(a1-3)]GlcNAc(b1-4)Gal(b1-4)[Fuc(a1-3)]GlcNAc
Outline: as §1

[35] = target: Fuc(a1-3)[Gal(b1-4)]GlcNAc(b1-6)GalNAc
Outline: as §1

[36] = target: Fuc(a1-3)[Gal(b1-4)]GlcNAc(b1-6)[Gal(b1-3)GlcNAc(b1-3)]Gal(b1-4)Glc
Outline: as §1

[37] = target: Fuc(a1-3)[Gal(b1-4)]GlcNAc(b1-6)[Neu5Ac(a2-3)Gal(b1-3)]GalNAc
Outline: as §1

[38] = target: Fuc(a1-3)[Gal(b1-4)]GlcNAc6S
Outline: as §1

[39] = target: Fuc(a1-3)[Gal3S(b1-4)]GlcNAc
Outline: as §1

[40] = target: Fuc(a1-3)[Gal3S(b1-4)]GlcNAc6S
Outline: as §1

[41] = target: Fuc(a1-3)[GalNAc(b1-4)]GlcNAc
Outline: as §1

Fuc(a1-4)GlcNAc = target: Fuc(a1-4)GlcNAc
Outline: as §1

Fuc(b1-3)GlcNAc = target: Fuc(b1-3)GlcNAc
Outline: as §1

Gal(a1-2)Gal = target: Gal(a1-2)Gal
Outline: as §1

B1: Protectin (Homo sapiens), P13987 (protein)
chain: MGIQGGSVLFGLLLVLAVFCHSGHSLQCYNCPNPTADCKTAVNCSSDFDACLITKAGLQVYNKCWKFEHCNFNDVTTRLRENELTYYCCKKDLCNFNEQLENGGTSLSEKTVLLLVTPFLAAAWSLHP
With B1 the “glycan array binding signal (z-score)” value [1] was -0.214, the “glycan array binding signal (z-score)” value [2] was -0.536 and the “glycan array binding signal (z-score)” value [3] was 0.763. The “glycan array binding signal (z-score)” value [4] was -0.93, the “glycan array binding signal (z-score)” value [5] was 0.883 and the “glycan array binding signal (z-score)” value [6] was 1.47. The “glycan array binding signal (z-score)” value [7] was 1.27, the “glycan array binding signal (z-score)” value [8] was 0.229 and the “glycan array binding signal (z-score)” value [9] was 0.325. For the same binder, the “glycan array binding signal (z-score)” value [10] was 0.378, the “glycan array binding signal (z-score)” value [11] was 0.112 and the “glycan array binding signal (z-score)” value [12] was 0.163. For the same binder, the “glycan array binding signal (z-score)” value [13] was 0.481, the “glycan array binding signal (z-score)” value [14] was -0.237 and the “glycan array binding signal (z-score)” value [15] was 0.722. For the same binder, the “glycan array binding signal (z-score)” value [16] was -0.168, the “glycan array binding signal (z-score)” value [17] was -0.791 and the “glycan array binding signal (z-score)” value [18] was -0.073. The “glycan array binding signal (z-score)” value [19] was -0.349, the “glycan array binding signal (z-score)” value [20] was -0.559 and the “glycan array binding signal (z-score)” value [21] was 0.045. The “glycan array binding signal (z-score)” value [22] was -0.605, the “glycan array binding signal (z-score)” value [23] was 1.38 and the “glycan array binding signal (z-score)” value [24] was 0.597. For the same binder, the “glycan array binding signal (z-score)” value [25] was -0.684, the “glycan array binding signal (z-score)” value [26] was 0.907 and the “glycan array binding signal (z-score)” value (Fuc(a1-3)GlcNAc) was -0.062. The “glycan array binding signal (z-score)” value [27] was 0.245, the “glycan array binding signal (z-score)” value [28] was 0.55 and the “glycan array binding signal (z-score)” value [29] was -1.09. For the same binder, the “glycan array binding signal (z-score)” value [30] was 1.27, the “glycan array binding signal (z-score)” value [31] was 0.128 and the “glycan array binding signal (z-score)” value [32] was 1.44. For the same binder, the “glycan array binding signal (z-score)” value [33] was 0.549, the “glycan array binding signal (z-score)” value [34] was -1.75 and the “glycan array binding signal (z-score)” value [35] was 2.63. For the same binder, the “glycan array binding signal (z-score)” value [36] was -0.354, the “glycan array binding signal (z-score)” value [37] was 2.01 and the “glycan array binding signal (z-score)” value [38] was -0.455. For the same binder, the “glycan array binding signal (z-score)” value [39] was 1.22, the “glycan array binding signal (z-score)” value [40] was 0.703 and the “glycan array binding signal (z-score)” value [41] was 0.825. The “glycan array binding signal (z-score)” value (Fuc(a1-4)GlcNAc) was 1.02, the “glycan array binding signal (z-score)” value (Fuc(b1-3)GlcNAc) was 0.309 and the “glycan array binding signal (z-score)” value (Gal(a1-2)Gal) was -0.934.
